The assay deals with T1, NYB (amino acids 49-141) (human) (UniProt P25208).
T1 sequence (looked up): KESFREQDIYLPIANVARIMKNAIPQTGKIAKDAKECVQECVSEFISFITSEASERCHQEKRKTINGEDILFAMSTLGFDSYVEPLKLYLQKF
As to the kind of experiment: co-expression in E. coli by cotransformation, Ni2+ capture by the His6 tag on NYC, then S75HR size exclusion chromatography. On the technique in general: SEC sorts molecules by how far they enter the pores of the column.

Data on one molecule can be found in patent US20120149060A1 (EUROPAISCHES LABORATORIUM FUR MOLEKULARBIOLOGIE EMBL, published 2012).

These are yes or no findings as the source states them, for the method shown. Some binding calls cover weakened binding; strength is not graded here. Tags and fused reporters may be left off the sequences shown.

B1: NYC (amino acids 27-12) with a six-histidine tag at the N-terminus (protein, human, UniProt Q13952 27-120, looked up, not shown: small tags and cut ends)
chain: MEEIRNLTVKDFRVQELPLARIKKIMKLDEDVKMISAEAPVLFAKAAQIFITELTLRAWIHTEDNKRRTLQRNDIAMAITKFDQFDFLIDIVPR
Consider B1, for which the binding result was “binds”.
